54 compounds from PubChem BioAssay AID1487 (National Center for Advancing Translational Sciences (NCATS), 2009) can be followed below.

This assay in a line: qHTS Assay for Modulators of Lamin A Splicing. Particulars: HeLa LMNA splicing GFP/RFP minigene ratio, 48 h. A digest of the protocol:
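S3 HeLa stable clones carrying a lamin A-EGFP splicing minigene plus DsRed2 were seeded at 600 cells/well in Opti-MEM with 2% FBS, pin-dosed and incubated 48 h at 37°C. Acumen cytometry (488 nm) gave the GFP/RFP total-intensity ratio.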
(In general: Quantitative high-throughput screening tests each substance at several concentrations.)

The mark [1] stands for this setting: measured here: GFP splicing reporter channel.
Setting [2] is: measured here: RFP viability control channel.

The other results are listed elsewhere or left out. Further columns of the screen follow, without active or inactive calls. The list favours compounds with an active or inconclusive main result. Potencies come from curve fits of mixed quality, noted in brackets.

Consider `O=c1c2ccccc2[nH]c2ccccc12`, for which the AC50 is, setting by setting: under setting [1], 31.6 µM [rising, single point]; under setting [2], 31.6 µM [rising, single point].

On to `CCc1nc(Nc2ccc(OC)c(OC)c2)c2nnn(Cc3ccccc3Cl)c2n1`, for which, under setting [2], the AC50 was 2.82 µM [rising, partial curve].

As to `COC(=O)c1ccc(CSc2cc(C)c3cccc(C)c3n2)o1`, the AC50 is 0.1 µM [falling, full curve] under setting [1] and 15.8 µM [falling, partial curve] under setting [2].

As to `O=c1c(N2CCN(c3cccc(Cl)c3)CC2)csc2ccc(Cl)cc12`, the AC50 by setting is: under setting [1], 35.5 µM [falling, single point]; under setting [2], 17.8 µM [falling, single point].

On to `Cc1cc([N+](=O)[O-])nn1Cc1ccc(C(=O)N/N=C/c2ccc(O)cc2O)cc1`, for which, under setting [2], the AC50 is 14.1 µM [rising, single point].

Take `Cc1nc(NC(=S)NC(=O)COc2ccccc2Cl)ccc1Br`: the AC50 under setting [1] was 11.2 µM [falling, partial curve, poor fit].

As to `S=c1[nH]c(-c2ccccc2)cn1/N=C/c1cccs1`, the AC50 under setting [2] is 0.0398 µM [falling, full curve, poor fit].

For `COc1ccc2nc(SCCOC(=O)Nc3ccc(Cl)cc3)nc(C)c2c1`, the AC50 is, setting by setting: under setting [1], 35.5 µM [rising, single point]; under setting [2], 35.5 µM [rising, single point].

With `C=CCc1cc(C=O)cc(OCC)c1OCc1ccc(Cl)cc1`, the AC50 under setting [2] is 35.5 µM [rising, single point].

`O=c1c2ccccc2ncn1-c1ccccc1F`: the AC50 under setting [2] was 0.000708 µM [falling, full curve, poor fit].

`O=S(=O)(c1cccs1)N1CCN(CC(O)COc2cccc(Br)c2)CC1` (stereo unspecified): under setting [2], the AC50 was 12.6 µM [rising, single point].

`O=C(NCC1CC1)c1ccc(Nc2nc3ccc(Br)cc3[nH]2)cc1`: the AC50 is, setting by setting: under setting [1], 15.8 µM [rising, single point]; under setting [2], 35.5 µM [rising, single point].

For the compound `O=C1NN(c2ccccc2)C(=O)/C1=C\c1ccc(-c2cc([N+](=O)[O-])ccc2O)o1`, the AC50 under setting [2] was 14.1 µM [rising, partial curve].

Turning to `c1cncc(-c2nc(N3CCCCCC3)c3ccccc3n2)c1`, the AC50 was 15.8 µM [rising, single point] under setting [1] and 17.8 µM [rising, single point] under setting [2].

Turning to `CCN(CC)C(=O)C1CCCN(c2ncnc3c2c(-c2ccccc2)cn3-c2cccc(C)c2)C1` (stereo unspecified), under setting [1], the AC50 is 35.5 µM [falling, single point].

On to `COc1ccc(C(=O)NC(=S)Nc2ccc(N3CCOCC3)c(Cl)c2)cc1[N+](=O)[O-]`, for which the AC50 under setting [2] was 17.8 µM [rising, single point].

Regarding `COc1ccc(-c2cc3ccc(O)c(CN4CCCCC4C)c3oc2=O)cc1OC` (stereo unspecified), under setting [1], the AC50 was 0.562 µM [rising, full curve, poor fit].

Regarding `CC(C)(C)C1CCc2onc(C(=O)NC3CCCC3)c2C1` (stereo unspecified), the AC50 under setting [2] was 35.5 µM [rising, single point].

For the compound `COc1ccc(C2C(CC(=O)O)=C(Nc3ccccc3)C(=O)N2c2ccccc2)cc1` (stereo unspecified), under setting [2], the AC50 was 0.891 µM [falling, full curve, poor fit].

With `O=C(CCNS(=O)(=O)c1ccc2c(c1)CCN2C(=O)C1CC1)N1CCN(c2cccc(C(F)(F)F)c2)CC1`, the AC50 under setting [2] is 0.0447 µM [falling, full curve, poor fit].

For the compound `O=C1CC(N2CCN(C/C=C/c3ccccc3)CC2)C(=O)N1Cc1ccc(N2CCCC2=O)cc1` (stereo unspecified), the AC50 runs as follows: under setting [1], 12.6 µM [rising, partial curve]; under setting [2], 14.1 µM [rising, partial curve].

For `O=C(c1cc2sccc2n1Cc1ccc(F)cc1)N1CCc2ccccc21`, the AC50 under setting [2] was 1.12 µM [rising, partial curve].

For the compound `COc1ccc(OCc2ccc(-c3nc(C#N)c(NCc4cccnc4)o3)o2)cc1`, the AC50 under setting [1] was 28.2 µM [falling, partial curve].

In the case of `O=c1c2ccccc2c(-c2ccccc2)nn1-c1cc(Cl)ccc1[N+](=O)[O-]`, the AC50 is, setting by setting: under setting [1], 35.5 µM [rising, single point]; under setting [2], 25.1 µM [rising, single point].

For `CCCOC(=O)c1[nH]c2c(c1C)C(=O)CC(c1cc(OC)c(OC)c(OC)c1)C2` (stereo unspecified), the AC50 is 2.82 µM [rising, full curve, poor fit] under setting [1] and 3.16 µM [rising, full curve] under setting [2].

As for `CCN(CC)c1ccc(/C=C(/C#N)c2nc3ccc(C)cc3[nH]2)c(OC(C)C)c1`, the AC50 under setting [2] was 0.0251 µM [falling, single point].

Turning to `C/C(=N\NC(=O)COc1ccccc1-c1ccccc1)c1ccccn1`, under setting [2], the AC50 was 11.2 µM [rising, partial curve].

With `Cc1cc([N+](=O)[O-])ccc1NC(=O)Nc1ccccc1F`, the AC50 under setting [2] was 0.0794 µM [rising, partial curve, poor fit].

Consider `CN1CCN(Cc2nc3ccccc3c(=O)n2Cc2nc(-c3ccc4ccccc4c3)cs2)CC1`, for which the AC50 reads like this: under setting [1], 15.8 µM [falling, single point]; under setting [2], 14.1 µM [falling, single point].

Turning to `Cc1cc(C)cc(NC(=O)N2CCN(C(=O)c3nsc4ccccc34)CC2)c1`, the AC50 was 0.631 µM [rising, full curve, poor fit] under setting [1] and 22.4 µM [rising, partial curve] under setting [2].

Consider `c1cncc(-c2nccc(-n3ccnc3)n2)c1`, for which the AC50 under setting [1] was 0.708 µM [falling, single point].

On to `C/C(=N\Nc1nc(-c2cc(C)ccc2C)cs1)c1cc2c(ccc3ccccc32)oc1=O`, for which, under setting [2], the AC50 was 20 µM [rising, partial curve, poor fit].

On to `CN(C)CCc1c[nH]c2ccc(CS(=O)(=O)N3CCCC3)cc12`, for which the AC50 is, setting by setting: under setting [1], 1.58 µM [falling, partial curve, poor fit]; under setting [2], 4.47 µM [falling, partial curve, poor fit].

Consider `C/C(=N\S(=O)(=O)c1ccc(C)cc1)Nc1cc(C(C)C)c(O)cc1C`, for which, under setting [2], the AC50 was 12.6 µM [rising, single point].

Regarding `Cc1ccc(C2(C)NC(=O)N(CC(=O)Nc3cc(S(=O)(=O)N4CCOCC4)ccc3C)C2=O)cc1` (stereo unspecified), the concentration at half-maximal activity (AC50) under setting [1] was 1 µM [rising, partial curve] and the AC50 under setting [2] is 0.0501 µM [rising, full curve, poor fit].

For the compound `N#CCCS(=O)(=O)c1nnnn1-c1ccccc1`, the AC50 under setting [2] is 20 µM [rising, partial curve].

`COc1ccc(NS(=O)(=O)c2ccc(C)c(NC(=O)NC3CCCCC3)c2)cc1`: under setting [2], the AC50 was 35.5 µM [rising, single point].

Turning to `CCOc1ccc(NC(=O)c2sc(NC(C)=O)c(C(=O)OC)c2C)cc1`, the AC50 under setting [1] was 0.0447 µM [rising, full curve, poor fit].

Regarding `COc1ccc(NC(=S)N(CCCN2CCCC2)Cc2cccn2Cc2ccc(Cl)cc2)cc1Cl`, the AC50 is, setting by setting: under setting [1], 35.5 µM [falling, single point]; under setting [2], 17.8 µM [falling, single point].

On to `C/C(=N\NC(=O)CSCc1ccccc1Cl)c1cc(O)ccc1O`, for which the AC50 under setting [1] was 6.31 µM [falling, single point].

For `Cc1ccc(C(=O)CC2(O)C(=O)N(Cc3ccc4c(c3)OCO4)c3ccccc32)cc1` (stereo unspecified), the AC50 by setting is: under setting [1], 12.6 µM [rising, single point]; under setting [2], 22.4 µM [rising, single point].

`COc1ccc(-c2cc(C(=O)N/N=C/c3sccc3C)c3ccccc3n2)c(OC)c1`: the AC50 under setting [2] is 7.08 µM [rising, full curve].

Turning to `Cn1c(Oc2ccc(Cl)cc2)c(C=O)c2ccccc21`, the AC50 under setting [1] was 11.2 µM [rising, partial curve, poor fit].

As for `COc1ccc(C(=O)OCC(=O)NCc2ccco2)cc1S(=O)(=O)N1CCN(c2cccc(Cl)c2)CC1`, the concentration at half-maximal activity (AC50) under setting [1] is 10 µM [rising, partial curve, poor fit] and the AC50 under setting [2] was 12.6 µM [rising, single point].

Take `O=C(Nc1ccccc1SCC1CSc2nc3ccccc3c(=O)n21)c1ccccc1Cl` (stereo unspecified): the AC50 under setting [2] is 35.5 µM [rising, single point].

As to `Cc1cccc(NC(=S)N(CCCN2CCCC2)Cc2cccn2Cc2ccc(Cl)cc2)c1`, the AC50 runs as follows: under setting [1], 35.5 µM [falling, partial curve, poor fit]; under setting [2], 35.5 µM [falling, single point].

In the case of `COc1ccc(-c2nn(-c3ccccc3)cc2C(=O)OCC(=O)c2ccc(C)c([N+](=O)[O-])c2)cc1`, under setting [2], the half-maximal activity concentration (AC50) was 15.8 µM [rising, single point].

On to `Cc1cc(Nc2ccc(Cl)cc2)n(-c2cccc(Cl)c2)n1`, for which the AC50 is 11.2 µM [rising, single point] under setting [1] and 14.1 µM [rising, single point] under setting [2].

Turning to `COc1ccc(C(=O)Oc2ccc(C(=S)N3CCOCC3)cc2)cc1`, the AC50 was 0.0708 µM [falling, full curve] under setting [1] and 0.1 µM [falling, full curve] under setting [2].

For `COc1ccccc1-c1nnc(SCC(=O)Nc2nc(-c3ccccc3)cs2)n1C`, the AC50 is 5.01 µM [rising, partial curve] under setting [1] and 8.91 µM [rising, partial curve] under setting [2].

On to `CC1CCN(CCCNC(=O)CN2C(=O)CSc3ccc(S(=O)(=O)N4CCOCC4)cc32)CC1`, for which the AC50 under setting [1] is 5.62 µM [rising, single point].

Consider `O=C(O)c1ccc(CSc2nc(-c3ccc(Cl)cc3)cc(C(F)(F)F)n2)cc1`, for which the AC50 is 35.5 µM [falling, single point] under setting [1] and 35.5 µM [falling, single point] under setting [2].

With `O=[N+]([O-])c1ccccc1/C=C/C=N/n1c(-c2ccccc2)n[nH]c1=S`, the AC50 under setting [2] was 11.2 µM [rising, single point].

On to `CCCOc1ccc(C(=O)NC(=S)NCc2cccnc2)cc1`, for which the AC50 runs as follows: under setting [1], 15.8 µM [rising, partial curve]; under setting [2], 35.5 µM [rising, single point].

By AC50 is commonly meant the midpoint of the concentration-response curve, whichever way the signal moves.
